# Experimental data taken from patent US20230173042A1, “METHODS OF TREATMENT WITH ASPARAGINASE” (JAZZ PHARMACEUTICALS IRELAND LTD., priority 2017, published 2023).
# For at least one compound, name, drawing or mass did not settle the structure.
# Legend:
# Assay type in all cases: cell-based
# [1] = system: AML cell lines (KG-1, HL-60 and MV4-11); experiment: Pegcrisantaspase combinations in AML and DLBCL cell lines (Example 8); details: AML cell lines KG-1, HL-60 and MV4-11, FIG. 14A-14B
# [2] = system: various cell lines; experiment: Pegcrisantaspase in combination with other compounds (Example 4, FIG. 2); details: compound in combination with Pegcrisantaspase
# [3] = system: DLBCL; experiment: SynergyScreen of Pegcrisantaspase or Oncaspar with standard of care agents; details: agent combined with Pegcrisantaspase (FIG. 13A) or Oncaspar (FIG. 13B)
# Source text: (§1) The special volcano plot of FIG. 9 relates compound sensitivity (as measured by ^10logIC50) to the presence of cancer hotspot mutations. […] The hotspot mutations were derived from statistical analyses of the recurrence patterns of mutations and copy number alterations in patients through separate studies. Axes and statistical analyses are identical to the volcano plot of FIG. 8. The cutoff p-level for significance is 0.32. […] Effect20 For determination of the effect of the compound on the activity of other anti-cancer agents in SynergyScreen™ experiments, a low, fixed concentration is used, corresponding to the concentration at which cell growth is inhibited by 20%. This concentration is determined using the dose-response curves of the single compounds. The concentration is the value on the x-as, corresponding to 80% viability of untreated at the y-axis.
# (§2) See the tables depicted in FIG. 13A-FIG. 13B. Grey shading indicates synergistic activity. Light grey shading indicates one experiment and dark grey indicates two experiments. […] Example 5: mPEG-r-crisantaspase conjugates (Pegcrisantaspases) was tested in combination with ABT-737 against HL-60 cell line.
# [4] = system: AML; experiment: as above; details: agent combined with Pegcrisantaspase (FIG. 13A) or Oncaspar (FIG. 13B)
# Source text: as §1, §2
smiles,measurement,setting,value
CC1(C)CCC(CN2CCN(c3ccc(C(=O)NS(=O)(=O)c4ccc(NCC5CCOCC5)c([N+](=O)[O-])c4)c(Oc4cnc5[nH]ccc5c4)c3)CC2)=C(c2ccc(Cl)cc2)C1 [venetoclax],synergy of combination with pegcrisantaspase,[1],strong synergy
same,potentiation of the effect by Pegcrisantaspase,[2],synergy
same,effect in DLBCL when used with Pegcrisantaspase or Oncaspar,[3],increased effect
same,effect in AML when used with Pegcrisantaspase or Oncaspar,[4],increased effect
